The whole screen tested about 52,000 sequences, of which about 210 (0.4%) were called active.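 How the source made its calls: active means gene whose silencing raises cell survival under the drug, median off-target-corrected z-score across its silencing RNAs 2 or more; inactive means the rest.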 The list shows a part of the results.

This assay can be described thus: Resistance to Poly (ADP-Ribose) Polymerase inhibitor: Gene Identification via Genome-wide siRNA Screen. The following applies: mouse BRCA2 R2336H ES cells, olaparib, CellTiter-Glo viability; hits give high values. Put shortly: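 Genome-wide siRNA screen (3 siRNAs/gene, 20 nM) in mouse ES cells carrying hypomorphic BRCA2 R2336H; olaparib 500 nM added 48 h post-transfection, CellTiter-Glo viability 72 h later. Normalized to plate-median negative control; MAD z-scores, gene median, seed-adjusted.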
In general terms: ATP-based viability assays read luminescence as a measure of living cells.
For the sequence GGCUAUGCAAGUGUUCUCUTT against Abpd, the z-score was inactive: -0.478.
The value for GCUCGUGUCAGAACCGAUGTT against Rwdd3 was inactive: 0.942; that for GGCUCACCCUAACUUUCCATT against Akr1c18 was inactive: -0.528; that for GGGACAGAGCCGAAAGAGUTT against Mrpl33 was inactive: -1.15.
The value for GCUCAGGCAAGACUCAUUGTT against Trim45 was inactive: -1.65; that for GGUGAAGAAAGUCAAGAAGTT against Sfpi1 was inactive: 1.08.
Then GGUCUACUUUUACGUCUCCTT against Nfatc4, with inactive: 0.465; and GGCGCAGUAUCACAGUCUUTT against Tle1, with inactive: -2.51; and “GCUGUAACUACAUUUGAGGTT against 4931406I20Rik”, with inactive: 0.0952.
As to GCUGAUUACCUCAGCAGAUTT against Prkcn, the z-score was inactive: -0.0476.
Then GGUUUUCAAGUUUUAGUGUTT against Gsta2, with inactive: -0.239.
Then GGAAGGAGAGACCAUUGAGTT against Nudt1, with inactive: -3.1; and GGCCUUUCACUUUCACUGGTT against Car6, with inactive: 0.874.
Then GGAGACUGUGAAGUUUGUATT against Armet, with inactive: -0.693; and GGCUAAAAAUCUCAUAGAGTT against Zpbp, with inactive: 0.488.
Consider GGCACAAUAAAAUAUAAGGTT against Srprb, for which the z-score is inactive: 1.09.
Consider CCAAUAAGUACAGCACCUUTT against C1ql4, for which the z-score is inactive: -1.77.
Regarding GCCAUCUGCCAGUAUACAATT against LOC381438, the z-score was inactive: -1.84.
For GGAUACCACCAUCAAUGAGTT against Atp6v1f, the z-score was inactive: -0.615.
On to GGAAGGACAGAAGAGGCCATT against Slc22a13, for which the z-score is inactive: -0.574.
Turning to GGCAAAUGAGACCUCAGAATT against Cpxm1, the z-score is inactive: -0.0873.
Then “CCUCGCUUAUGUCAAUAAUTT against 1700008G05Rik”, with inactive: 0.835; and “CCCUUGGCCAAGGAACAUUTT against 4921509C19Rik”, with inactive: -0.0297.
As for GGCCAUAGCAUCUUGUUCUTT against Supt4h, the z-score is inactive: -1.64.
Turning to GGCCUACAACAACCUCAUUTT against Crat, the z-score was inactive: -1.15.
Turning to GCAUUUCCUUAACACUCCCTT against Msmb, the z-score was inactive: 1.07.
Turning to CCUGGUACUCCAGAAUGUUTT against Sh3tc1, the z-score was inactive: -0.782.
As to UACAUACAGGCUGUCUGUUTT against Olfr181, the z-score was inactive: -0.221.
Then “GCGCAAACUUUAAUAACACTT against 9130423L19Rik”, with inactive: -0.0417; and ACUGUAUACAAUUUCUUGCTT against Olfr206, with inactive: -0.0829.
Then “GCCCUGUUGGACAUGAUCGTT against 2310001N14Rik”, with inactive: 0.369; and GGCAGUUAUGAUAAAGAUUTT against Slc25a16, with inactive: -0.19; and CCACCUGGUUUAUCAAAAUTT against Cnot4, with inactive: 1.76.
As for GGUAGAAGGUCCUGAAGAATT against Clybl, the z-score is inactive: -1.33.
Then “GGCAGAAGACUUGGUGAUCTT against 2810423O19Rik”, with inactive: -1.21.
Then GGAUUGUGUUUGAGUCUCATT against MGC49146, with inactive: -1.4; and GGAGUGAAUACUGGUGCUGTT against Crip2, with inactive: 2.12.
Consider GGUAACUGGGAUUGUAUUUTT against Cbln4, for which the z-score was inactive: -1.43.
For GGGAAAGAUAGUAGAAGUCTT against Gmpr2, the z-score is inactive: 0.0609.
Then GGUGAAACUUGCACAAUAUTT against BC027246, with inactive: 0.143; and GAACUUGAUUGUCCUCCUGTT against Mc2r, with inactive: 0.709; and GGAAGGAACUUUUUGAGUATT against Rnf35, with inactive: -0.081.
The value for CGACUUCAUAAUUAUGCAATT against Als2 was inactive: 0.307.
Then GCUAUAAUGCUGGAGUCAATT against Leprel1, with inactive: 0.428; and GGACCGCUUCAACAGUAUGTT against Tcfl5, with inactive: 0.67; and GGAGCAGAAUGAGAAGACUTT against Mir, with inactive: 0.288.
On to GCCCUUAUUAAACCAUUUGTT against Usp9x, for which the z-score was inactive: -2.08.
Then GGGUUCUAGUCUUCGAGACTT against Jmjd1b, with inactive: -0.0867; and GGUAUUCACCAUUAUGACUTT against Olfr186, with inactive: 0.778; and “GGGUCUCCUCUUUCCGUAATT against B930037P14Rik”, with inactive: -0.691.
Then GGUGUUCAAGUACCAGUAUTT against Egln2, with inactive: -0.524; and GAUGCUCGAGAAUCUACUCTT against Olfr284, with inactive: -0.352.
The value for GGAUUUCAUGUUUGAGAUCTT against Unc13b was inactive: 2.29.
GCGGCUACAGAUCCUAAUGTT against Khsrp: the z-score was inactive: -0.391.
Then GCUUUGAUGUCGAUGGGCUTT against Arg1, with inactive: 0.175; and GGAUCUAUUCACUUCGGAUTT against Ocil, with inactive: 0.451; and GGACACAGUUGAAAAGGUUTT against Kcnh1, with inactive: -0.215.
The value for CCCUGUGACCAGGAUUACATT against AW049765 was inactive: 0.983.
The value for GCAUUUUAGACUCAGAAUCTT against Car3 was inactive: 1.34.
For the sequence CCUCUGUUGGUCGUAAAGCTT against AK129302, the z-score was inactive: -0.393.
Regarding GGUUGAAAACUAAGAACUCTT against Pglyrp2, the z-score was inactive: -0.0636.
GCUGUACGUAGAUUCCAGATT against Mmp21: the z-score is inactive: -0.446.
Then “CCAAGAAGCAUGCAUGUAUTT against 2810474O19Rik”, with inactive: -0.817; and “GGGUAAAACCAUCAAGGAGTT against D330038I09Rik”, with inactive: -0.735; and CCUGGAUCAUAUAAUAGAGTT against Dffb, with inactive: 0.34.
In the case of GGUGAUUUCACUGGGUAAGTT against Olfr632, the z-score is inactive: -0.74.
The value for “CCCUAUAAUUGCCUUAAUATT against ICRFP703B1614Q5.6” was inactive: -0.0759; that for GCACUACCACUGUCAGCAATT against Ldb3 was inactive: -0.741; that for GCCCUACUGUCAAAUAGGATT against Pxmp4 was inactive: 0.635.
Take “GGUUUACAACCAAAGCUUUTT against C130034I18Rik”: the z-score is inactive: 0.382.
Take “GGAAUUGAGUGGUUGUAUCTT against 4933427D14Rik”: the z-score was inactive: 0.153.
Turning to GGCUCCGUGAUGCUUCAAGTT against Selenbp2, the z-score was inactive: 0.087.
As to “GGCUGAUUUUCAGCUAAACTT against A430107J06Rik”, the z-score is inactive: 3.07.
Then GGCCAUGAUAUCCUCUUCUTT against Vars2, with inactive: -2.77; and “GGUUUGAUGUGGAAUCAUGTT against 1110006I15Rik”, with inactive: 0.205; and GGUGAACAUUGACCACUUCTT against Rgs5, with inactive: -0.749.
Then GGAUUUACCUUACAAAAGUTT against Fmr2, with inactive: 0.578; and CCUUUUGAUAGUGAUGGUCTT against Olfr735, with inactive: 0.24.
The value for GCUUCGGCCUCAGUAUUCATT against Pigb was inactive: 1.84; that for GGCUUUAGUUAGAACGGGUTT against Pttg1 was inactive: 0.487; that for GCAUGUAGCCUGGCCUUCUTT against Zfp458 was inactive: 2.4.
With “GGCUAACCGUAUCAGUCAUTT against 5832418A03Rik”, the z-score was inactive: 1.79.
The value for GCUUUAAACUGAGUGAUAATT against Zfp451 was inactive: 0.613; that for GGCUGUGAAGCAAAAGCAGTT against Nola2 was inactive: -0.118.
Regarding CCGUAUUUAUAUUGGUUACTT against Phlda2, the z-score is inactive: 1.52.
On to CCUCGAAUGCAGACGUACGTT against Sdhb, for which the z-score was inactive: 2.
Then GGGAGGGUACAGAAAUUUATT against Spz1, with inactive: 0.488; and GGUGAAGUCACUAAUCUUUTT against Prp19, with inactive: -0.966; and CCUAUCCUUCUCUGACAUCTT against Olfr371, with inactive: -0.704.
Then GGAGAAGUUUGGCAAGCCCTT against Hdgf, with inactive: -0.848; and GGGUGCAAGUCGUUUCUCUTT against Ugcgl1, with inactive: 1.42.
The value for GGAGAUGAAAAGAGAAAUCTT against Cct6b was inactive: -0.287; that for GGAGGAUCAGAGAACAGAGTT against Alms1 was inactive: 0.885; that for GCGAUUCAGAGACCUAUGGTT against Aven was inactive: -3.33.
For the sequence CCCAACAAAAUGCAUCAAUTT against Nrg3, the z-score was inactive: -0.0265.
Then GGAGAAGCUAUGGUAUUACTT against Apc2, with inactive: -0.0862; and CCUUCAGGAGAAUAAUUGUTT against Prkar2b, with inactive: 0.46.
Regarding “CGCCUUGCUUUGUUACCAATT against MGI:2153084”, the z-score is inactive: 1.93.
The value for GGUUUUAUCCCUGUUUCCUTT against Asahl was inactive: -0.631; that for GGCAGAUCCAAGGCUAUUATT against Olfr901 was inactive: -3.31.
As to “GGAUUUAAAAGAGGCAGAATT against 1810057E01Rik”, the z-score was inactive: 0.758.
Then GCAGGACUAUGUCAACCUATT against Atp6v0d2, with inactive: 0.116.
For the sequence CCAAUCUCUGGCUAUAAAUTT against AJ554213, the z-score is inactive: -0.427.
Consider GGAGUACGUGAUUGCUCUGTT against Rcvrn, for which the z-score is inactive: -0.388.
